Reference: PubChem BioAssay AID2685 (National Center for Advancing Translational Sciences (NCATS), 2010)
The list shows a part of the results. The main result of the screen is listed elsewhere. These columns were measured beside it and carry no call. Most of these compounds were active or inconclusive in the main read-out, so they are no random draw. The note in brackets gives the kind of curve behind each potency; many fits are weak.

Assay: qHTS Assay for Lipid Storage Modulators in Drosophila S3 Cells;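 on cell number change: cells counted by Cell Tracker Red CMTPX staining in the red channel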
Conditions: BODIPY lipid droplet fluorescence, 18-24 h; for cell number change: measured here: cell count max response, cells fed with added oleic acid
In short: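 Laser-scanning cytometry quantifies lipid droplet accumulation (500–530 nm total intensity; droplet/cell object ratio) in oleic acid-fed (400 uM added) Drosophila S3 cells treated with a concentration series. 20 uM Triacsin C defined 100% inhibition.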

[1] = measured here: lipid fluorescence (Fed channel) AC50, cells fed with added oleic acid
[2] = measured here: cell number channel AC50, cells fed with added oleic acid

Row | Structure (SMILES) | cell number change [%] | AC50 [1] | AC50 [2]
1 | COc1cc(/C=C/C(=O)OCC(=O)Nc2cccc(Oc3ccccc3)c2)ccc1O | -20.1 | 0.0326 µM [falling, full curve] | –
2 | CN(C)S(=O)(=O)c1cccc(NC(=O)COC(=O)CCC(=O)c2ccc(F)cc2)c1 | -11 | 4.11 µM [falling, single point] | 5.8 µM [falling, single point]
3 | Cc1cccc2cc(COC(=O)c3ccccc3)c(=O)[nH]c12 | -10.5 | 0.0651 µM [rising, full curve, poor fit] | 0.82 µM [rising, full curve, poor fit]
4 | CCC(C(=O)Nc1nc(C)cs1)c1ccccc1 (stereo not given) | 16.5 | 18.4 µM [rising, single point] | –
5 | O=C(N/N=C1/CC2C=CCC12)c1ccco1 (stereo not given) | 100 | 25.9 µM [rising, partial curve] | 0.103 µM [rising, full curve, poor fit]
6 | COC(OC)c1ccc(C#N)c(=O)[nH]1 | 22.6 | – | 0.231 µM [falling, single point]
7 | COc1ccc(N2CCN(C(=O)NCc3cccc(OC)c3)CC2)cc1 | 11.9 | 29.1 µM [rising, single point] | –
8 | O=C(NCc1ccco1)C(c1ccncc1)N(C(=O)Cn1nnc2ccccc21)c1ccccc1 (stereo not given) | -27.8 | 29.1 µM [falling, single point] | –
9 | O=C(N/N=C1/CC2CCC1C2)c1cc2ccccc2cc1O (stereo not given) | 9.83 | – | –
10 | Cc1cccn2c(=O)c(C=C(C#N)C#N)c(N3CCN(c4ccccc4)CC3)nc12 | 57.7 | 0.00461 µM [falling, full curve, poor fit] | –
11 | COc1ccc(OC)c(NC(=O)c2ccc(S(=O)(=O)N3CCOCC3)cc2)c1 | 7.08 | 0.082 µM [falling, single point] | –
12 | Cc1cc(/C=C(/C#N)c2cccc(F)c2)c(C)n1-c1cccnc1 | – | 6.51 µM [rising, single point] | 6.51 µM [rising, single point]
13 | CCOC(=O)CC1C(=O)NC2CCCCC2N1C(=O)Nc1ccc(Cl)cc1 (stereo not given) | -25.6 | 4.11 µM [falling, full curve] | 2.59 µM [falling, full curve, poor fit]
14 | C[C@@H]1C=C[C@](Cc2ccccc2)(C(=O)NCC2CC2)N1C(=O)c1ccccc1 | 8.77 | 16.4 µM [falling, partial curve] | –
15 | Cc1nn(-c2ccccc2)c(Cl)c1C1C(C#N)=C(N)Oc2c1c(C)nn2-c1ccccc1 (stereo not given) | 0.23 | 2.31 µM [rising, full curve] | –
16 | Cc1c([N+](=O)[O-])cc(C(=O)Oc2ccc(Br)cc2C(=S)N2CCCCC2)cc1[N+](=O)[O-] | -6.41 | – | –
17 | Cc1cccc(NC(NC(=O)c2ccccc2[N+](=O)[O-])C(Cl)(Cl)Cl)c1 (stereo not given) | 173 | 23.1 µM [rising, single point] | 29.1 µM [rising, single point]
18 | COc1ccc2c(c1)c(C(=O)N/N=C/c1cccs1)c(C)n2C | 20.2 | 6.51 µM [rising, single point] | –
19 | OCC(Cc1ccccc1)NCc1ccccc1C(F)(F)F (stereo not given) | 17 | 11.6 µM [falling, partial curve] | –
20 | CCOc1ccc2c(c1)N(C(=O)CN1C(=O)CCC1=O)C(C)(C)C=C2C | 21 | 16.4 µM [rising, single point] | –
21 | COc1cc(C(=O)NCc2ccc(-c3nc4ccccc4s3)cc2)cc(OC)c1OC | -66 | 29.1 µM [falling, single point] | 29.1 µM [falling, single point]
22 | COc1ccc([C@@H]2CC(=O)c3c(O)cc(O)cc3O2)cc1O | 11.7 | – | 6.51 µM [rising, single point]
23 | O=C(Nc1ccccc1)c1c(F)cccc1F | 33.6 | – | 13 µM [rising, partial curve, poor fit]
24 | CN(C(=O)COC(=O)CNC(=O)c1ccc(Cl)cc1Cl)c1ccccc1 | -49.6 | 32.6 µM [falling, single point] | –
25 | CCO[C@@H]1OC(C(=O)Nc2ccccc2)=C[C@H](c2ccc(Br)cc2)[C@H]1CCCO | -21.5 | 11.6 µM [falling, partial curve, poor fit] | –
26 | COc1cccc(-c2ccc(NC(=O)C3CCCN(Cc4cnc(C)n4C)C3)cc2)c1 (stereo not given) | 5.45 | 29.1 µM [rising, single point] | 6.51 µM [rising, single point]
27 | CCN(CC(=O)NCc1ccc(F)cc1)C(=O)/C=C/c1ccc(S(=O)(=O)N(CC)CC)cc1 | -23.8 | 29.1 µM [falling, single point] | –
28 | COc1ccc(Cl)cc1C(=O)NCCCSc1ccccc1 | 19.2 | 9.2 µM [falling, partial curve] | –

Row | Structure (SMILES) | cell number change [%] | AC50 [1] | AC50 [2]
29 | COc1cc(C(=O)NCCSc2ccc(F)cc2)cc(OC)c1OC | – | – | 0.206 µM [rising, partial curve, poor fit]
30 | CC(=O)Nc1ccc(S(=O)(=O)N(C)CC(=O)OCC(=O)N2CCCCC2)cc1 | -51.7 | 29.1 µM [falling, single point] | 5.8 µM [falling, full curve]
31 | CC[C@H](C)[C@H](NC(N)=O)C(=O)Nc1ccc(NC(C)=O)cc1 | -47.4 | 9.2 µM [falling, partial curve, poor fit] | 7.31 µM [falling, partial curve]
32 | CN(CCc1ccccn1)C1CC(=O)N(c2ccc(Cl)cc2)C1=O (stereo not given) | 12.6 | 0.731 µM [falling, partial curve, poor fit] | –
33 | CC(C)Cn1c(SCC(=O)Nc2ncccn2)nc2ccccc21 | – | 4.11 µM [rising, partial curve] | 6.51 µM [rising, single point]
34 | O=C1CC(c2ccc(F)cc2)C2=C(CCCC2=O)N1 (stereo not given) | 11.8 | 29.1 µM [falling, single point] | –
35 | COc1ccc2[nH]c(=O)c(CN(c3ccccc3OC)S(=O)(=O)c3ccccc3)cc2c1 | -35.9 | – | 23.1 µM [falling, single point]
36 | COc1cc(CNCCSc2nnnn2C)cc(Br)c1OCc1ccc(F)cc1 | -13.3 | – | –
37 | C[C@@H](NC(=O)c1nc[nH]c1C(=O)N(C)Cc1ccccc1)c1ccccc1 | -36.2 | 7.31 µM [falling, partial curve, poor fit] | 13 µM [falling, single point]
38 | CN(C)c1ccc(-c2nn3c(-c4ccc(Cl)cc4Cl)nnc3s2)cc1 | – | 0.517 µM [rising, partial curve, poor fit] | 0.92 µM [rising, partial curve]
39 | C=CCn1c(=O)c2ccccc2n2c(SCC(=O)NCCc3ccccc3)nnc12 | 15.1 | 2.06 µM [rising, partial curve, poor fit] | 1.16 µM [rising, full curve, poor fit]
40 | CNC(=O)C1CCN(S(=O)(=O)c2c(C)noc2/C=C/c2ccc(OC)cc2)CC1 | -4.8 | 0.259 µM [rising, full curve, poor fit] | –
41 | CCN1C(=O)[C@H]2[C@@H](c3ccc(-c4ccccc4)cc3)N[C@@](Cc3ccccc3)(C(=O)OC)[C@H]2C1=O | – | 29.1 µM [rising, single point] | –
42 | CCCNC(=O)c1ccc2c(c1)CCN2S(C)(=O)=O | -0.664 | 4.47 µM [falling, single point] | –
43 | O=C1/C(=C/c2cccc(O)c2)SC(=S)N1CC1CCCO1 (stereo not given) | -29.4 | 32.6 µM [falling, single point] | –
44 | CNC(=O)c1oc(-c2ccc(Cl)cc2)nc1C | – | 5.17 µM [falling, full curve, poor fit] | –
45 | Cc1ccccc1-c1nc(CS(=O)CC(=O)NC2CCCCC2)c(C)o1 (stereo not given) | -8.94 | 11.6 µM [falling, partial curve, poor fit] | –
46 | O=C(Nc1ccccn1)Nc1ccccc1Cl | 10.7 | 29.1 µM [rising, single point] | –
47 | COC(=O)C1=C(C)NC(=O)/C1=C\c1cc(C)n(-c2c(C)cccc2C)c1C | -2.86 | 1.3 µM [rising, full curve] | 1.3 µM [rising, full curve]
48 | Cc1ccccc1C(=O)NNC(=S)NC(=O)c1cccs1 | -21.4 | 0.58 µM [rising, single point] | –
49 | COc1ccc(S(=O)(=O)/N=C2/NC(=O)/C(=C\c3cc(OC)c(OC)cc3[N+](=O)[O-])S2)cc1 | – | 1.46 µM [falling, partial curve, poor fit] | –
50 | CCN(CC)CCOC(=O)C1(C2CCCCC2)CCCCC1 | 4 | 29.1 µM [falling, single point] | –
51 | CCCCN(CCCC)Cc1ccc(C(=O)NNC(=O)Nc2ccc(Cl)cc2)o1 | -29.4 | 32.6 µM [falling, partial curve, poor fit] | –
52 | CC(NCC1COc2ccccc2O1)C1COc2ccccc2O1 (stereo not given) | -24.6 | – | –
53 | COc1cc(CNC(=O)CCC(=O)N2C[C@H]3C[C@H](C2)c2cccc(=O)n2C3)cc(OC)c1OC | -6.71 | 0.0651 µM [falling, full curve, poor fit] | –
54 | COc1cc(OC)c(NC(=O)C2CC(=O)N(c3ccc4c(c3)OCCO4)C2)cc1Cl (stereo not given) | -14.1 | 0.58 µM [rising, single point] | –
55 | Cc1nn(Cc2nc(-c3cccs3)no2)c(C)c1Br | -34.9 | 0.00461 µM [rising, full curve, poor fit] | 20.6 µM [falling, single point]

Ordered by count of non-hydrogen atoms (high to low): five of the compounds above
Row | Structure (SMILES) | cell number change [%] | AC50 [1] | AC50 [2]
39 | C=CCn1c(=O)c2ccccc2n2c(SCC(=O)NCCc3ccccc3)nnc12 | 15.1 | 2.06 µM [rising, partial curve, poor fit] | 1.16 µM [rising, full curve, poor fit]
13 | CCOC(=O)CC1C(=O)NC2CCCCC2N1C(=O)Nc1ccc(Cl)cc1 (stereo not given) | -25.6 | 4.11 µM [falling, full curve] | 2.59 µM [falling, full curve, poor fit]
45 | Cc1ccccc1-c1nc(CS(=O)CC(=O)NC2CCCCC2)c(C)o1 (stereo not given) | -8.94 | 11.6 µM [falling, partial curve, poor fit] | –
22 | COc1ccc([C@@H]2CC(=O)c3c(O)cc(O)cc3O2)cc1O | 11.7 | – | 6.51 µM [rising, single point]
23 | O=C(Nc1ccccc1)c1c(F)cccc1F | 33.6 | – | 13 µM [rising, partial curve, poor fit]
